Measured values taken from publication PMC13217735.
Results are given in words; binding and its absence hold for the method and conditions named. Binding seen in cells or lysates may run through a third protein. Here binding means that the protein was enriched with, or labelled near, the bait; the list need not be complete.

Chains of the proteins cited; added tags and fusions are not shown.
UniProt O15169: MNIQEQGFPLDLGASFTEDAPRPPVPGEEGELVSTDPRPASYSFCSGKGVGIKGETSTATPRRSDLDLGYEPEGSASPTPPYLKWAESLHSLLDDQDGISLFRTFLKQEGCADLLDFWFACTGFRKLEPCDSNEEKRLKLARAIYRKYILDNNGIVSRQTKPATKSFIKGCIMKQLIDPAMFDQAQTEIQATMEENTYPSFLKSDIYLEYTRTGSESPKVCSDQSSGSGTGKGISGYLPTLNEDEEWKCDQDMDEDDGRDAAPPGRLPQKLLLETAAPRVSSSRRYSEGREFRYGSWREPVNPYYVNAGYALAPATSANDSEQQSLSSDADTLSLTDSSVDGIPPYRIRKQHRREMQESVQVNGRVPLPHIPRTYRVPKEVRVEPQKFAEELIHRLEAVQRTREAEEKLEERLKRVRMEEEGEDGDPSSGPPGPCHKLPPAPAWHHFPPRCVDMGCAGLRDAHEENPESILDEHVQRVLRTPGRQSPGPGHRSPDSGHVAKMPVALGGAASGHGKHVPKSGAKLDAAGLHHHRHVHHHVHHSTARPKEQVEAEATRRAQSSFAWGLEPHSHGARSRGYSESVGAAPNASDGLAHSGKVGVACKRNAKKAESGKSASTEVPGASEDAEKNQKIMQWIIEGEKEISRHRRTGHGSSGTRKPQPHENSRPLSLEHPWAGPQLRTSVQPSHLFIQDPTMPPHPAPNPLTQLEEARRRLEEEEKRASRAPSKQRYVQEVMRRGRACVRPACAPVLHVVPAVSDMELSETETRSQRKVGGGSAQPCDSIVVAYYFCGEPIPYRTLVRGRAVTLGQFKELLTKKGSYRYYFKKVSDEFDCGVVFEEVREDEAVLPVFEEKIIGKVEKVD
UniProt P35222: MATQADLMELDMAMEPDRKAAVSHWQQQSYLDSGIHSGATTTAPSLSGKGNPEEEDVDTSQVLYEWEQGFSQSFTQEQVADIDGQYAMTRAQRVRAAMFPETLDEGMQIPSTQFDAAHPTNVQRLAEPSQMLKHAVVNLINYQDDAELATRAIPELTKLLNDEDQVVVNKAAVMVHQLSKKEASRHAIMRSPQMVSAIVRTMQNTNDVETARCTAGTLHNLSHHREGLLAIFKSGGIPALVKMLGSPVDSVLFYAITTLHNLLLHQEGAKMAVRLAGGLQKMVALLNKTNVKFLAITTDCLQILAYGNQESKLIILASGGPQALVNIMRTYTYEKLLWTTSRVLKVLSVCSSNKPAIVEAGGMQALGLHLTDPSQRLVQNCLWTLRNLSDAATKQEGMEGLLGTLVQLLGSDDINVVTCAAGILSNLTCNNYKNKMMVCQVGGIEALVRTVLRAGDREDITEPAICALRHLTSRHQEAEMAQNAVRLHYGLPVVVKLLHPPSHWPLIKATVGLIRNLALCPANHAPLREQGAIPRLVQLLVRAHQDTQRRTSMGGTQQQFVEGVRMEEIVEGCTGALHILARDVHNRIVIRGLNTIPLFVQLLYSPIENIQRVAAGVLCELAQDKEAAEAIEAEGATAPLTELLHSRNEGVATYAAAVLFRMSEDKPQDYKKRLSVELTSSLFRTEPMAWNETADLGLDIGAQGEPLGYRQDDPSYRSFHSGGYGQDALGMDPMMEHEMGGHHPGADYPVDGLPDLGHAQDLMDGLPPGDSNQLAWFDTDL

Target: AXIN1 (human (endogenous in HCT116)) (UniProt O15169)
Assay: affinity purification with mass spectrometry; HCT116 lysate (20 mM Tris-HCl pH 7.5, 130 mM NaCl, 10% glycerol, 2 mM EDTA, 1% Triton X-100); endogenous AXIN1 or GSK3B precipitated overnight at 4 °C with antibody-conjugated Protein G beads, isotype IgG as control; on-bead trypsin digest, DIA mass spectrometry; cells treated with 100 nM trametinib 4 h, 10 µM CHIR99021 30 min or DMSO

beta-catenin (from UniProt P35222 1-781)
binding: binds
